The list does not hold the whole screen: it gathers tests that were run many times, whatever their T/C, doses with no T/C, and many T/C values between a quarter and a half above the control. Further doses and runs are listed elsewhere. T/C: endpoint of the treated group in % of that of the vehicle group. Some entries give survivors of the animals treated and no T/C: the source files T/C as zero there, which appears to mark a toxic dose or a test without result, not a measured value. Some doses without a T/C left all or most animals alive at the check, yet need not have been tolerated: survival well below the control is almost never listed, so the zero probably covers shortened survival too. Counts of survivors are from the toxicity check (mostly the fifth day) where no day follows; animals may have died later. Schedule codes are those of the source, read here as Q, the interval in days (D) or hours (H), X, the number of doses. Some schedule codes hold Z or #, which are not explained here. Where survival is the endpoint, the PubChem record calls one and a half times the control and up active, and a quarter to a half above the control has no call in these data; cut-offs in other NCI protocols can differ.
Test system: Madison 109 lung carcinoma i.m., mice, median survival
Assay: NCI In Vivo Anticancer Drug Screen. Data for tumor model Madison 109 Lung Carcinoma (intramuscular) in unknown mice
Settings: T/C endpoint: median survival time, higher T/C = longer survival
Description: The antitumor activity of compounds was measured in mice bearing transplantable tumors. Survival or tumor size were measured and the results are expressed as the measurement made in the treated group (T) divided by the measurement made in the vehicle treated control group (C). The tumor model used in this assay is Madison 109 Lung Carcinoma (intramuscular) in unknown mice

[1] = dose: 20.0 mg/kg/injection, schedule: Q01DX009 (ip), vehicle: water
[2] = dose: 100.0 mg/kg/injection, schedule: Q01DX009 (ip), vehicle: water
[3] = dose: 200.0 mg/kg/injection, schedule: Q01DX009 (ip), vehicle: water

SMILES: COC1=C(N)C(=O)c2nc(-c3nc(C(=O)O)c(C)c(-c4ccc(OC)c(OC)c4O)c3N)ccc2C1=O
- T/C (dose: 40.0 micrograms/kg/injection, schedule: Q01DX009 (ip), vehicle: other): 133 % of control

SMILES: CN(C)/N=N/c1nc[nH]c1C(N)=O
- T/C (dose: 50.0 mg/kg/injection, schedule: Q01DX009 (ip), vehicle: Klucel (hydroxypropylcellulose) (HPC)): 132 % of control
- T/C (dose: 100.0 mg/kg/injection, schedule: Q01DX009 (ip), vehicle: Klucel (hydroxypropylcellulose) (HPC)): 140 % of control
- survivor count (dose: 400.0 mg/kg/injection, schedule: Q01DX009 (ip), vehicle: Klucel (hydroxypropylcellulose) (HPC)): 8 of 8

SMILES: S=P(N1CC1)(N1CC1)N1CC1
- survivor count (dose: 12.0 mg/kg/injection, schedule: Q01DX009 (ip), vehicle: water): 8 of 8
- T/C [1]: 134 % of control
- survivor count (dose: 24.0 mg/kg/injection, schedule: Q01DX009 (ip), vehicle: water): 8 of 8

SMILES: CO[C@H]1/C=C/O[C@@]2(C)Oc3c(C)c(O)c4c(O)c(c(/C=N/N5C(C)CN(Cc6ccccc6)CC5C)c(O)c4c3C2=O)NC(=O)/C(C)=C\C=C\[C@H](C)[C@H](O)[C@@H](C)[C@@H](O)[C@@H](C)[C@H](OC(C)=O)[C@@H]1C (stereo partly specified)
- survivor count (dose: 8.0 mg/kg/injection, schedule: Q03HX024 (ip), vehicle: saline): 8 of 8
- survivor count (dose: 32.0 mg/kg/injection, schedule: Q03HX024 (ip), vehicle: saline): 8 of 8
- survivor count (dose: 64.0 mg/kg/injection, schedule: Q02DX Z (ip), vehicle: saline): 8 of 8
- survivor count (dose: 64.0 mg/kg/injection, schedule: Q03HX024 (ip), vehicle: saline): 6 of 8
- survivor count (dose: 128.0 mg/kg/injection, schedule: Q01DX009 (ip), vehicle: saline): 7 of 8
- survivor count (dose: 128.0 mg/kg/injection, schedule: Q02DX Z (ip), vehicle: saline): 8 of 8
- survivor count (dose: 128.0 mg/kg/injection, schedule: Q03HX008 (ip), vehicle: saline): 5 of 8
- survivor count (dose: 256.0 mg/kg/injection, schedule: Q01DX009 (ip), vehicle: saline): 1 of 8
- survivor count (dose: 256.0 mg/kg/injection, schedule: Q02DX Z (ip), vehicle: saline): 8 of 8
- survivor count (dose: 256.0 mg/kg/injection, schedule: Q04DX003 (ip), vehicle: saline): 8 of 8
- survivor count (dose: 512.0 mg/kg/injection, schedule: Q01DX001 (ip), vehicle: saline): 8 of 8
- survivor count (dose: 512.0 mg/kg/injection, schedule: Q01DX009 (ip), vehicle: saline): 0 of 8
- survivor count (dose: 512.0 mg/kg/injection, schedule: Q02DX Z (ip), vehicle: saline): 0 of 8
- survivor count (dose: 512.0 mg/kg/injection, schedule: Q04DX003 (ip), vehicle: saline): 6 of 8
- survivor count (dose: 1024.0 mg/kg/injection, schedule: Q01DX001 (ip), vehicle: saline): 0 of 8

SMILES: O=C(O)c1c(Cl)c(Cl)c(Cl)c(Cl)c1-c1c2cc(I)c(=O)c(I)c-2oc2c(I)c(O)c(I)cc12
- survivor count (dose: 16.0 mg/kg/injection, schedule: Q01DX009 (ip), vehicle: water): 8 of 8
- survivor count [2]: 8 of 8
- survivor count [3]: 7 of 8
- survivor count (dose: 400.0 mg/kg/injection, schedule: Q01DX009 (ip), vehicle: water): 0 of 8

SMILES: O=[N+]([O-])c1ccc(Cl)c([N+](=O)[O-])c1
- T/C (dose: 10.0 mg/kg/injection, schedule: Q02DX009 (ip), vehicle: water): 132 % of control
- T/C [1]: 138 % of control
- T/C (dose: 20.0 mg/kg/injection, schedule: Q02DX009 (ip), vehicle: water): 138 % of control
- T/C (dose: 40.0 mg/kg/injection, schedule: Q02DX009 (ip), vehicle: water): 135 % of control
- T/C (dose: 80.0 mg/kg/injection, schedule: Q02DX009 (ip), vehicle: water): 135 % of control
- T/C (dose: 160.0 mg/kg/injection, schedule: Q02DX009 (ip), vehicle: water): 129 % of control

SMILES: COc1cc2c(c(OC)c1OC)-c1ccc(OC)c(=O)cc1[C@@H](NC(C)=O)CC2
- survivor count (dose: 0.03 mg/kg/injection, schedule: Q01DX009 (ip), vehicle: water): 8 of 8
- T/C (dose: 0.48 mg/kg/injection, schedule: Q01DX009 (ip), vehicle: water): 127 % of control

SMILES: C[C@@H]1C[C@@H]([C@H](O)CC2CC(=O)NC(=O)C2)C(=O)[C@@H](C)C1
- survivor count (dose: 40.0 mg/kg/injection, schedule: Q01DX009 (ip), vehicle: water): 8 of 8
- survivor count (dose: 80.0 mg/kg/injection, schedule: Q01DX009 (ip), vehicle: water): 3 of 8

SMILES: CC1OC(O[C@H]2/C=C/C=C/C=C/C=C/C=C/C=C/C=C/[C@H](C)[C@@H](O)[C@@H](C)[C@H](C)OC(=O)C[C@H](O)C[C@H](O)CC[C@@H](O)[C@H](O)C[C@H](O)C[C@]3(O)C[C@H](O)[C@@H](C(=O)O)[C@H](C2)O3)C(O)C(N)C1O (stereo partly specified)
- survivor count (dose: 12.5 mg/kg/injection, schedule: Q01DX009 (ip), vehicle: DMSO): 1 of 8
- survivor count (dose: 25.0 mg/kg/injection, schedule: Q01DX009 (ip), vehicle: DMSO): 0 of 8
- survivor count (dose: 50.0 mg/kg/injection, schedule: Q01DX009 (ip), vehicle: DMSO): 0 of 8
- survivor count (dose: 100.0 mg/kg/injection, schedule: Q01DX009 (ip), vehicle: DMSO): 0 of 8

SMILES: Cc1c2ccncc2c(C)c2c1[nH]c1ccccc12
- survivor count (dose: 32.0 mg/kg/injection, schedule: Q01DX009 (ip), vehicle: other): 7 of 8

SMILES: OC(CBr)C(O)C(O)C(O)CBr (stereo unspecified)
- survivor count (dose: 200.0 mg/kg/injection, schedule: Q01DX009 (ip), vehicle: Klucel (hydroxypropylcellulose) (HPC)): 8 of 8

SMILES: COc1cccc2c1C(=O)c1c(O)c3c(c(O)c1C2=O)C[C@@](O)(C(C)=O)C[C@@H]3OC1CC(N)C(O)C(C)O1 (stereo partly specified)
- T/C (dose: 0.25 mg/kg/injection, schedule: Q01DX009 (ip), vehicle: water, evaluated on day 5): 135 % of control
- T/C (dose: 0.25 mg/kg/injection, schedule: Q01DX009 (ip), vehicle: water, evaluated on day 75): 135 % of control
- T/C (dose: 0.5 mg/kg/injection, schedule: Q01DX009 (ip), vehicle: water, evaluated on day 5): 132 % of control
- T/C (dose: 0.5 mg/kg/injection, schedule: Q01DX009 (ip), vehicle: water, evaluated on day 75): 132 % of control
- T/C (dose: 0.75 mg/kg/injection, schedule: Q04DX003 (ip), vehicle: water): 127 % of control
- survivor count (dose: 1.5 mg/kg/injection, schedule: Q01DX009 (ip), vehicle: water): 6 of 6
- survivor count (dose: 2.5 mg/kg/injection, schedule: Q01DX009 (ip), vehicle: water): 6 of 6

SMILES: C/C(=N/N=C(N)N)c1ccc(NC(=O)Nc2ccc(/C(C)=N/N=C(N)N)cc2)cc1
- survivor count [2]: 6 of 8
- survivor count [3]: 6 of 8

Reference: PubChem BioAssay AID300 (DTP/NCI, 2004)
